In publication PMC517823 one finds binding data, which are given here for six molecules.

No constants are given. Whether binding was seen depends on the method and setting. Some results given as binding are weak or reduced against the parent protein; the word gives no strength.

T1: Ffh (UniProt P0AGD7)
T1 sequence: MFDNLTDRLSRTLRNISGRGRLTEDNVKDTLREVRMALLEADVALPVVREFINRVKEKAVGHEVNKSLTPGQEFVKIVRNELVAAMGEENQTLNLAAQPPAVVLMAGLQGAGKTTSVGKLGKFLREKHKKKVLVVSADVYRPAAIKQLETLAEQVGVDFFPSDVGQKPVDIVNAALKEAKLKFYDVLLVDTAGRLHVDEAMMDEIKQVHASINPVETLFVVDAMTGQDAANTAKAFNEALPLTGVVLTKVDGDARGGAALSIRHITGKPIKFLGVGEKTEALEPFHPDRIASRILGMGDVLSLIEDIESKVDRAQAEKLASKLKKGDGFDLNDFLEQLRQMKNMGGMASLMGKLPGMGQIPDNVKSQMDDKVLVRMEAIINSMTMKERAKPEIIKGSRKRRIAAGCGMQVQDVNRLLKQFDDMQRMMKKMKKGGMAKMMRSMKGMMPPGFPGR

B1: wild-type FtsY(47-497) (domain or fragment, UniProt P10121 47-497)
chain: ASEQAVEEQPQAHTEAEAETFAADVVEVTEQVAESEKAQPEAEVVAQPEPVVEETPEPVAIEREELPLPEDVNAEAVSPEEWQAEAETVEIVEAAEEEAAKEEITDEELETALAAEAAEEAVMVVPPAEEEQPVEEIAQEQEKPTKEGFFARLKRSLLKTKENLGSGFISLFRGKKIDDDLFEELEEQLLIADVGVETTRKIITNLTEGASRKQLRDAEALYGLLKEEMGEILAKVDEPLNVEGKAPFVILMVGVNGVGKTTTIGKLARQFEQQGKSVMLAAGDTFRAAAVEQLQVWGQRNNIPVIAQHTGADSASVIFDAIQAAKARNIDVLIADTAGRLQNKSHLMEELKKIVRVMKKLDVEAPHEVMLTIDASTGQNAVSQAKLFHEAVGLTGITLTKLDGTAKGGVIFSVADQFGIPIRYIGVGERIEDLRPFKADDFIEALFARED
B2: FtsY T307(112)A (domain or fragment, UniProt P10121 47-497)
chain: ASEQAVEEQPQAHTEAEAETFAADVVEVTEQVAESEKAQPEAEVVAQPEPVVEETPEPVAIEREELPLPEDVNAEAVSPEEWQAEAETVEIVEAAEEEAAKEEITDEELETALAAEAAEEAVMVVPPAEEEQPVEEIAQEQEKPTKEGFFARLKRSLLKTKENLGSGFISLFRGKKIDDDLFEELEEQLLIADVGVETTRKIITNLTEGASRKQLRDAEALYGLLKEEMGEILAKVDEPLNVEGKAPFVILMVGVNGVGKATTIGKLARQFEQQGKSVMLAAGDTFRAAAVEQLQVWGQRNNIPVIAQHTGADSASVIFDAIQAAKARNIDVLIADTAGRLQNKSHLMEELKKIVRVMKKLDVEAPHEVMLTIDASTGQNAVSQAKLFHEAVGLTGITLTKLDGTAKGGVIFSVADQFGIPIRYIGVGERIEDLRPFKADDFIEALFARED
B3: FtsY Asn302(107) to Trp (domain or fragment, UniProt P10121 47-497)
chain: ASEQAVEEQPQAHTEAEAETFAADVVEVTEQVAESEKAQPEAEVVAQPEPVVEETPEPVAIEREELPLPEDVNAEAVSPEEWQAEAETVEIVEAAEEEAAKEEITDEELETALAAEAAEEAVMVVPPAEEEQPVEEIAQEQEKPTKEGFFARLKRSLLKTKENLGSGFISLFRGKKIDDDLFEELEEQLLIADVGVETTRKIITNLTEGASRKQLRDAEALYGLLKEEMGEILAKVDEPLNVEGKAPFVILMVGVWGVGKTTTIGKLARQFEQQGKSVMLAAGDTFRAAAVEQLQVWGQRNNIPVIAQHTGADSASVIFDAIQAAKARNIDVLIADTAGRLQNKSHLMEELKKIVRVMKKLDVEAPHEVMLTIDASTGQNAVSQAKLFHEAVGLTGITLTKLDGTAKGGVIFSVADQFGIPIRYIGVGERIEDLRPFKADDFIEALFARED
B4: FtsY R333(138)A (domain or fragment, UniProt P10121 47-497)
chain: ASEQAVEEQPQAHTEAEAETFAADVVEVTEQVAESEKAQPEAEVVAQPEPVVEETPEPVAIEREELPLPEDVNAEAVSPEEWQAEAETVEIVEAAEEEAAKEEITDEELETALAAEAAEEAVMVVPPAEEEQPVEEIAQEQEKPTKEGFFARLKRSLLKTKENLGSGFISLFRGKKIDDDLFEELEEQLLIADVGVETTRKIITNLTEGASRKQLRDAEALYGLLKEEMGEILAKVDEPLNVEGKAPFVILMVGVNGVGKTTTIGKLARQFEQQGKSVMLAAGDTFAAAAVEQLQVWGQRNNIPVIAQHTGADSASVIFDAIQAAKARNIDVLIADTAGRLQNKSHLMEELKKIVRVMKKLDVEAPHEVMLTIDASTGQNAVSQAKLFHEAVGLTGITLTKLDGTAKGGVIFSVADQFGIPIRYIGVGERIEDLRPFKADDFIEALFARED
B5: FtsY Asn302(107) to Ala (domain or fragment, UniProt P10121 47-497)
chain: ASEQAVEEQPQAHTEAEAETFAADVVEVTEQVAESEKAQPEAEVVAQPEPVVEETPEPVAIEREELPLPEDVNAEAVSPEEWQAEAETVEIVEAAEEEAAKEEITDEELETALAAEAAEEAVMVVPPAEEEQPVEEIAQEQEKPTKEGFFARLKRSLLKTKENLGSGFISLFRGKKIDDDLFEELEEQLLIADVGVETTRKIITNLTEGASRKQLRDAEALYGLLKEEMGEILAKVDEPLNVEGKAPFVILMVGVAGVGKTTTIGKLARQFEQQGKSVMLAAGDTFRAAAVEQLQVWGQRNNIPVIAQHTGADSASVIFDAIQAAKARNIDVLIADTAGRLQNKSHLMEELKKIVRVMKKLDVEAPHEVMLTIDASTGQNAVSQAKLFHEAVGLTGITLTKLDGTAKGGVIFSVADQFGIPIRYIGVGERIEDLRPFKADDFIEALFARED
B6: FtsY A336(141)W (domain or fragment, UniProt P10121 47-497)
chain: ASEQAVEEQPQAHTEAEAETFAADVVEVTEQVAESEKAQPEAEVVAQPEPVVEETPEPVAIEREELPLPEDVNAEAVSPEEWQAEAETVEIVEAAEEEAAKEEITDEELETALAAEAAEEAVMVVPPAEEEQPVEEIAQEQEKPTKEGFFARLKRSLLKTKENLGSGFISLFRGKKIDDDLFEELEEQLLIADVGVETTRKIITNLTEGASRKQLRDAEALYGLLKEEMGEILAKVDEPLNVEGKAPFVILMVGVNGVGKTTTIGKLARQFEQQGKSVMLAAGDTFRAAWVEQLQVWGQRNNIPVIAQHTGADSASVIFDAIQAAKARNIDVLIADTAGRLQNKSHLMEELKKIVRVMKKLDVEAPHEVMLTIDASTGQNAVSQAKLFHEAVGLTGITLTKLDGTAKGGVIFSVADQFGIPIRYIGVGERIEDLRPFKADDFIEALFARED

This assay concerns the target T1, Ffh. Kind of assay: GTPase inhibition (competition) assay; mutant FtsY varied as inhibitor of the GTPase reaction of Ffh with subsaturating wild-type FtsY; under these conditions Ki equals Kd of the Ffh-FtsY(mt) complex; fit to equation 3; both purified.
For the molecule B1, the binding entry is listed as “binds”.
With B2, the binding entry was “binds weakly”.
B3: the binding result is “binds”.
Turning to B4, the binding result was “binds”.
In the case of B5, the binding result was “binds”.
For the molecule B6, the binding entry was “binds”.
